Out of some 6,900 compounds screened, fewer than 10 were called active. The call rests on the fitted dose curve; in most records, active means well fitted curve in the direction sought with a large enough effect; inconclusive means small, poorly fitted or top-dose-only effect, or another doubt; inactive means no such curve, though single readings can be large or run the other way. This is one part of the list.
molecular target: Metallo-beta-lactamase type 2 (Klebsiella pneumoniae) (UniProt C7C422); experiment: qHTS to identify inhibitors of the New Delhi Metallo-beta-lactamase (NDM): primary screen against the NCATS Gemini Collection; conditions: NDM-1 enzyme, meropenem hydrolysis, absorbance 300 nm; at 38.4 µM (top of the series) unless noted; further: % of control where 0% means no effect
Outline: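 Meropenem hydrolysis (50 uM final) by 2 nM NDM-1 read as 300 nm absorbance after 30 min, following >30 min compound–enzyme preincubation in HEPES pH 7.0 with 1 uM ZnSO4 and 0.01% Tween20.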

The chains behind the UniProt entries cited, without tags or fusion partners. Where a name states a change or a piece, a line headed by the entry shows the natural chain unless it says otherwise.
UniProt C7C422: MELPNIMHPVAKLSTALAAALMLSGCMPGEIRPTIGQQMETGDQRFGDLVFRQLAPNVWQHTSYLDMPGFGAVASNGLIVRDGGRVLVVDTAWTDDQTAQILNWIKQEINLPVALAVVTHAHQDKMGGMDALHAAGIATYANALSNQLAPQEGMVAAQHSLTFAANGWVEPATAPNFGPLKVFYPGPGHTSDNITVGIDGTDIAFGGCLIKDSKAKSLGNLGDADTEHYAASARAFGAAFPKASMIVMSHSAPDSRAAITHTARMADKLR

Activity % (negative = inhibition), inactive:
CC(C)CC(=O)N1CCN(c2nnc3ccc(C(F)(F)F)cn23)CC1 9.59%
COc1cc(CN2CCC(CO)(CN3CCCC3)CC2)ccc1F -2.18%
O=C(CC1CCN(C(=O)C2CCCCC2)C1)NCc1ccccc1 (stereo unspecified) 0.861%
COc1cccc(CNC(=O)Nc2cccc(-c3ccc(N4CCCCC4)nn3)c2)c1 24.3%
COc1cccc(C(=O)N2CC3(Cc4ccccc4N(C(C)=O)C3)C2)c1 0.921%
CC(NC(=O)OCc1ccccc1)c1nc2cccnc2n1C1CCCCC1 (stereo unspecified) 5.66%
O=C(Cn1c2c(c(=O)n1Cc1ccccc1)CCN(Cc1ccccc1)C2)NCc1cccc(Cl)c1 19.5%
COc1cccc(C(=O)NCC2CCCN(Cc3ccccn3)C2)c1OC (stereo unspecified) 2.43%
COC(=O)c1cc2n(n1)CCCN(C(=O)c1cc(C)nc3ccc(C)cc13)C2 1.48%
CSc1ccc(-c2cccc(C(=O)NCC(=O)N3CCOCC3)c2)cc1 11.7%
O=C(CCn1ccn2nc3c(c2c1=O)CCCC3)NCc1ccc(F)c(Cl)c1 33.4%
Cc1ccc(C(=O)N2CC[C@H](N3CCN(C)CC3)[C@H](CCCO)C2)cc1C -0.329%
Fc1ccccc1OCc1nc(C2CCCNC2)no1 (stereo unspecified) 4.54%
CCN1CCN(C2(C(=O)NCCC3CCCCO3)Cc3ccccc3C2)CC1 (stereo unspecified) 11.1%
Cc1ccc([C@@H]2CN(c3cc(N4CCC(O)CC4)ncn3)C[C@H]2N(C)C)cc1 -0.759%
COCCN1CCCC1c1nc(C2CN(C(=O)c3ncccc3C)C2)no1 (stereo unspecified) 9.05%
Cc1ccc(CNC(=O)N2CCCC3(CCC(=O)N(CC4CC4)C3)C2)cc1 (stereo unspecified) -4.58%
O=C(NCCCN1CCc2ccccc2C1)C1CCCCC(=O)N1Cc1ccccc1 (stereo unspecified) -1.46%
O=C(c1cc(F)ccc1F)N1CCC(Cc2noc(C3CC3)n2)C1 (stereo unspecified) 5.13%
COc1ccc(NC(=O)N2Cc3[nH]cnc3C[C@H]2c2nc(-c3ccc(C(F)(F)F)cc3)no2)cc1 5.38%
COc1ccc(CC(=O)N[C@H](C)c2onc(C)c2C(=O)O)cc1 11.1% [at 57.5 µM]
O=c1n(CC2CC2)nc2n1CCN(S(=O)(=O)Cc1ccccc1)CC2 -0.737%
CC[C@H]1CN(Cc2ccc(OC)cc2O)CC[C@H]1CC(=O)N1CCOCC1 104% [at 57.5 µM]
CCOc1ccccc1CN1CCC2(CCN(C(=O)c3ccccc3C)CC2)Oc2ccccc21 10.8%
CSCC(=O)N[C@H]1CCN2C(=O)c3cc(-c4ccc(Cl)cc4)ccc3NC(=O)[C@H]12 10.8% [at 57.5 µM]
COC(=O)CNC(=O)c1cn2cc(-c3cccc(C(F)(F)F)c3)sc2n1 17.2%
N#Cc1cccc(C(=O)Nc2ccc([C@H]3OCC(=O)N(Cc4ccc(F)cc4)[C@@H]3CO)cc2)c1 5.95%
O=C1CCCCC(CNC(=O)c2ccc3ccccc3n2)N1 (stereo unspecified) 5.48%
CN1CCCC1c1nc(C2CN(S(=O)(=O)Cc3ccccc3F)C2)no1 (stereo unspecified) 7.58%
O=C(c1cc[nH]c1C1CCCNC1)N(Cc1ccc(F)cc1)Cc1cccnc1 (stereo unspecified) 6.68%
CCOc1cc2c(cn1)NCCN(Cc1ccncc1Cl)C2 5.21% [at 57.5 µM]
Cc1nn(CC(=O)NC2CCCCC2)c(=O)c2nc(C(C)C)sc12 1.22%
OC[C@@H]1CN(Cc2ccc(F)cc2)C[C@H]1c1nc(-c2ccncc2)no1 -0.725%
COc1ccc(CCC(=O)N2CCOCCNC(=O)CC2)cc1 6.59%
O=C(c1cc(-n2cccn2)ccc1Cl)N1CCn2nc(CO)cc2C1 -2.11%
CC(=O)NC1CC2(CCN(C(=O)CCCNC(=O)OC(C)(C)C)CC2)Oc2ccccc21 (stereo unspecified) 14.2%
Cc1nn2c(c1-c1ccccc1[S+](C)(=O)[O-])N(CCCc1ccccc1)CCC2 7.93% [at 57.5 µM]
O=C(CN1CC2CC(C1)[C@H]1CCCC(=O)N1C2)N1CCSCC1 (stereo partly specified) 0.707%
COC[C@H]1NC(=O)CC[C@H]1C(=O)N1CCN(c2cccc(C)c2)CC1 11%
CC(=O)N1CCC(N2CCOC[C@H]2c2ncc(-c3ccncc3)[nH]2)CC1 84.5% [at 57.5 µM]
Cc1cc(C[C@@H]2COC[C@@H]2NC(=O)C2CCN(C(=O)C3CC3)CC2)on1 -0.984%
COC(=O)[C@H]1CCCN1C(=O)[C@@H]1C[C@H](NC(=O)NC(C)C)CN1C(=O)c1cccn1C -7.66% [at 57.5 µM]
CN1CCN(c2ncnc3sc4c(c23)CCNC4)CC1 6.4%
CCCn1c(C)cnc1CC1CCN(S(=O)(=O)c2ccccc2)C1 (stereo unspecified) -1.33%
Cc1c(CO)cccc1NC(=O)c1ccc(CN2CCCC(C)C2)cc1 (stereo unspecified) 10.8%
O=C(C1CC1)N1CCC(Cc2nc(-c3ccc(F)cc3)no2)CC1 -2.61%
CCc1nc2cc(N3CCC(C(=O)NCc4cccnc4)CC3)cnc2nc1CC 0.652%
Cc1nc(C)c(C(=O)N2CCC3(CC2)CC(N(Cc2ccccc2)C2CC2)CCO3)s1 (stereo unspecified) 18.7%
O=C(NCCc1ccccn1)C1CCCN(c2nc(-c3ccccc3)nc3c2CCC3)C1 (stereo unspecified) 13.4%
CC(C)NC(=O)NC[C@H]1OC[C@@H](NC2CCCC2)[C@@H]1O 4.2% [at 77.1 µM]
Oc1ccc(-c2ccc(-c3nc(CCc4ccccc4)no3)cn2)cc1 -2.08%
CC(C)NC(=O)C1CCc2nnc(CNC(=O)C3CC3)n21 (stereo unspecified) 47.4% [at 57.5 µM]
CN1C[C@@H](NC(=O)NC2CCCCC2)C[C@H]1c1nc(-c2ccccn2)no1 5.53% [at 57.5 µM]
CC(=O)N1CCCN(C(=O)c2ccc3c(c2)NC(C)(CCCCc2ccccc2)CO3)CC1 (stereo unspecified) -0.209%
COc1ccccc1CNC(=O)c1nn(CC2CC2)c2c1CNCC2 0.195%
COc1ccccc1CC(=O)N1CC[C@@H]2NC(=O)[C@H]3C[C@H](NC(=O)C4CCC4)CN3C(=O)[C@H]21 0.413%
CCN(CC)C(=O)c1csc(-c2cccc(OC(C)C)c2)n1 20.2%
Cc1cnc(C2CC2)n1C1CCCN(C(=O)c2ccoc2)C1 (stereo unspecified) 1.2%
CC(=O)Nc1ccc2c(c1)S(=O)(=O)N=C(CC(C)C)N2c1ccccc1 8.31%
CCn1ncc(CN2CCCCCNC(=O)[C@@H]3CCC[C@@H]32)c1C -1.71%
COC(=O)Nc1cc(C2CC2)nn1C 9.58% [at 57.5 µM]
O=C(Nc1cc(Cl)cc(Cl)c1)c1ccn2nccc2c1 21.7% [at 57.5 µM]
Cn1cc(-c2ccncc2)cc1C(=O)N1CCN(c2ccc(F)cc2)CC1 7.95%
CCc1cccc(NC(=O)[C@@H]2CN(S(C)(=O)=O)C[C@H]2c2ccncc2)c1 4.5%
COc1ccc(CC2(CO)CCN(c3nccc(N)n3)CC2)cc1 -0.827%
Cc1cnc(C(=O)N[C@@H]2CN(C3CCOCC3)C[C@H]2CN(C)C)cn1 -8.22%
O=C(N[C@@H]1CN(Cc2ccncc2F)C[C@H]1CO)C1CC1 -9.05%
COc1ccc(-c2nnc(C[C@@H]3C[C@@H](C(C)C)[C@H](CNCc4ccncc4)C=C3C)o2)cc1 11.2%
Cn1c(=O)c2ccnn2c2ccc(C(=O)NCC3CCN(Cc4ccccc4F)CC3)cc21 0.0386%
O=C(C1CCCC1)N1CCC2(CC1)CC(c1ccccc1)=NO2 0.65%
COc1cncc(Nc2ncc(-c3ccccc3OC)c3c2OCC3)c1 8.78% [at 57.5 µM]
CCC(=O)N1C[C@@H]2CCCN3CCC[C@@H]([C@H]23)[C@H]1CCCC(=O)NC -6.06%
COc1ccc(S(=O)(=O)Nc2ccc(C)n(CC(=O)O)c2=O)cc1 38%
C=CCCC(CN1CCCOCC1)Oc1nccc(N(C)CC)n1 (stereo unspecified) 7.94%
O=C1O[C@@H]2CN(c3ncccn3)C[C@@H]2N1CCc1ccc(F)cc1 -0.225%
COCCNC(=O)NC[C@H]1O[C@@H]2C[C@@H](CC(=O)N3CCC(F)(F)C3)O[C@@H]2[C@@H]1O 3.27% [at 57.5 µM]
COc1ccc(-c2noc(CC3CCN(C(=O)c4cc(F)ccc4F)CC3)n2)cc1 -1.45%
O=C(c1cc(F)ccc1F)N1CC(c2nc(CCc3ccccc3)no2)C1 -0.341%
N#Cc1cccc(C(=O)N2CCCOCCNC(=O)CC2)c1 -0.29%
COc1ccc(CNc2nccc(CCC(F)(F)F)n2)cc1OC 49.3%
O=c1[nH]c2cccnc2n1CCc1ccccc1 12.1% [at 57.5 µM]
COc1ccc([C@@H](NC(=O)c2cc3ncccn3n2)C2CC(O)C2)cn1 (stereo partly specified) -0.651%
CN1C[C@H]2CNC[C@@]2(C(=O)NCc2ccccc2OCc2ccccc2)C1 0.0744%
CC(C)CN1C(=O)c2cccn2CC1CN (stereo unspecified) 0.344%
CCS(=O)(=O)N1CCC(Oc2cccc(C(=O)NCc3ccccn3)c2)CC1 51.5%
c1ccc(CN2CCC[C@H]2c2nc(-c3ccc(N4CCOCC4)nc3)no2)cc1 16.2% [at 57.5 µM]

Looked up by compound from the entries so far (3):
Activity % (negative = inhibition), inactive:
CC(C)CN1C(=O)c2cccn2CC1CN (stereo unspecified) 0.344%
CC(=O)Nc1ccc2c(c1)S(=O)(=O)N=C(CC(C)C)N2c1ccccc1 8.31%
O=C(c1cc(-n2cccn2)ccc1Cl)N1CCn2nc(CO)cc2C1 -2.11%

Nothing new here: an excerpt of the list.
Activity % (negative = inhibition), inactive:
N#Cc1cccc(C(=O)N2CCCOCCNC(=O)CC2)c1 -0.29%
COc1ccc(CNc2nccc(CCC(F)(F)F)n2)cc1OC 49.3%
O=c1[nH]c2cccnc2n1CCc1ccccc1 12.1% [at 57.5 µM]

Reference: PubChem BioAssay AID1794845 (National Center for Advancing Translational Sciences (NCATS), 2023)
